No constants are given. Whether binding was seen depends on the method and setting. Binding seen in cells or lysates may run through a third protein. Where a sequence is shown, tags or fusion partners need not be part of it.
Molecular target: Flag-tagged TrkB lacking the IgG2/d5 domain (TrkB-Δd5) (human) (UniProt Q16620)
Experiment: co-IP; HEK293T cells co-transfected with Flag-tagged TrkB constructs and GFP-tagged MDGA2 constructs; lysates IP with control IgG, anti-Flag or anti-GFP, immunoblot

Protein sequences, listed by entry. Tags and fused reporters are not part of them. Lines headed by an entry give the natural chain unless they say otherwise; changes in a name come on top.
UniProt Q16620: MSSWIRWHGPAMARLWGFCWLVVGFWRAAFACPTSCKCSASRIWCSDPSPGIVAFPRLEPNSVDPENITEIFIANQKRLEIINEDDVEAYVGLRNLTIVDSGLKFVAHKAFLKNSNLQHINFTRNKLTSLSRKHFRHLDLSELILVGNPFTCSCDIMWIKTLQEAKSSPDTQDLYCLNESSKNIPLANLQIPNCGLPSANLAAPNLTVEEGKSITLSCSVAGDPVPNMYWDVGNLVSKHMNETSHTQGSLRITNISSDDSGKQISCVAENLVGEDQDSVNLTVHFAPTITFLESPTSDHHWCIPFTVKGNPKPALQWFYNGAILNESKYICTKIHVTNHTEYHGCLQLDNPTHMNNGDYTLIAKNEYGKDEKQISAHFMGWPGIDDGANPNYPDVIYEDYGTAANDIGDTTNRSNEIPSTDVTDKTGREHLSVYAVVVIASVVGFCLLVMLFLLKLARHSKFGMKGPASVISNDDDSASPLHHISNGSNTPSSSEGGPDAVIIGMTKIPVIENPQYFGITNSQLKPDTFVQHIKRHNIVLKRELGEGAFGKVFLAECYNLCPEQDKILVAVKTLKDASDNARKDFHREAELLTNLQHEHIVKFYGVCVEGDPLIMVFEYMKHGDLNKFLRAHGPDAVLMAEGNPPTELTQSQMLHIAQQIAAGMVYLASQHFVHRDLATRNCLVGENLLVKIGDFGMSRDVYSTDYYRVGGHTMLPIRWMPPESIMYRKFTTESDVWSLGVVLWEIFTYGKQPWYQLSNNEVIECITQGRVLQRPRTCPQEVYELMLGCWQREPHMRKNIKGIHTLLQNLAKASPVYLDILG

B1: GFP-tagged full-length human MDGA2 (MDGA2-GFP) (protein, UniProt Q7Z553 26-931)
chain: PPTVRIVHSGLACNIEEERYSERVYTIREGETLELTCLVTGHPRPQIRWTKTAGSASDRFQDSSVFNETLRITNIQRHQGGRYYCKAENGLGSPAIKSIRVDVYYLDDPVVTVHQSIGEAKEQFYYERTVFLRCVANSNPPVRYSWRRGQEVLLQGSDKGVEIYEPFFTQGETKILKLKNLRPQDYANYSCIASVRNVCNIPDKMVSFRLSNKTASPSIKLLVDDPIVVNPGEAITLVCVTTGGEPAPSLTWVRSFGTLPEKTVLNGGTLTIPAITSDDAGTYSCIANNNVGNPAKKSTNIIVRALKKGRFWITPDPYHKDDNIQIGREVKISCQVEAVPSEELTFSWFKNGRPLRSSERMVITQTDPDVSPGTTNLDIIDLKFTDFGTYTCVASLKGGGISDISIDVNISSSTVPPNLTVPQEKSPLVTREGDTIELQCQVTGKPKPIILWSRADKEVAMPDGSMQMESYDGTLRIVNVSREMSGMYRCQTSQYNGFNVKPREALVQLIVQYPPAVEPAFLEIRQGQDRSVTMSCRVLRAYPIRVLTYEWRLGNKLLRTGQFDSQEYTEYAVKSLSNENYGVYNCSIINEAGAGRCSFLVTGKAYAPEFYYDTYNPVWQNRHRVYSYSLQWTQMNPDAVDRIVAYRLGIRQAGQQRWWEQEIKINGNIQKGELITYNLTELIKPEAYEVRLTPLTKFGEGDSTIRVIKYSAPVNPHLREFHCGFEDGNICLFTQDDTDNFDWTKQSTATRNTKYTPNTGPNADRSGSKEGFYMYIETSRPRLEGEKARLLSPVFSIAPKNPYGPTNTAYCFSFFYHMYGQHIGVLNVYLRLKGQTTIENPLWSSSGNKGQRWNEAHVNIYPITSFQLIFEGIRGPGIEGDIAIDDVSIAEGECAKQDLATKNSVD
  binding: no binding

— PMC11960969, “Mdga2 deficiency leads to an aberrant activation of BDNF/TrkB signaling that underlies autism-relevant synaptic and behavioral changes in mice” (PLOS Biology, 2025)
